From publication PMC7671691 come the findings set out here.

The chains behind the UniProt entries cited, without tags or fusion partners.
UniProt P97490: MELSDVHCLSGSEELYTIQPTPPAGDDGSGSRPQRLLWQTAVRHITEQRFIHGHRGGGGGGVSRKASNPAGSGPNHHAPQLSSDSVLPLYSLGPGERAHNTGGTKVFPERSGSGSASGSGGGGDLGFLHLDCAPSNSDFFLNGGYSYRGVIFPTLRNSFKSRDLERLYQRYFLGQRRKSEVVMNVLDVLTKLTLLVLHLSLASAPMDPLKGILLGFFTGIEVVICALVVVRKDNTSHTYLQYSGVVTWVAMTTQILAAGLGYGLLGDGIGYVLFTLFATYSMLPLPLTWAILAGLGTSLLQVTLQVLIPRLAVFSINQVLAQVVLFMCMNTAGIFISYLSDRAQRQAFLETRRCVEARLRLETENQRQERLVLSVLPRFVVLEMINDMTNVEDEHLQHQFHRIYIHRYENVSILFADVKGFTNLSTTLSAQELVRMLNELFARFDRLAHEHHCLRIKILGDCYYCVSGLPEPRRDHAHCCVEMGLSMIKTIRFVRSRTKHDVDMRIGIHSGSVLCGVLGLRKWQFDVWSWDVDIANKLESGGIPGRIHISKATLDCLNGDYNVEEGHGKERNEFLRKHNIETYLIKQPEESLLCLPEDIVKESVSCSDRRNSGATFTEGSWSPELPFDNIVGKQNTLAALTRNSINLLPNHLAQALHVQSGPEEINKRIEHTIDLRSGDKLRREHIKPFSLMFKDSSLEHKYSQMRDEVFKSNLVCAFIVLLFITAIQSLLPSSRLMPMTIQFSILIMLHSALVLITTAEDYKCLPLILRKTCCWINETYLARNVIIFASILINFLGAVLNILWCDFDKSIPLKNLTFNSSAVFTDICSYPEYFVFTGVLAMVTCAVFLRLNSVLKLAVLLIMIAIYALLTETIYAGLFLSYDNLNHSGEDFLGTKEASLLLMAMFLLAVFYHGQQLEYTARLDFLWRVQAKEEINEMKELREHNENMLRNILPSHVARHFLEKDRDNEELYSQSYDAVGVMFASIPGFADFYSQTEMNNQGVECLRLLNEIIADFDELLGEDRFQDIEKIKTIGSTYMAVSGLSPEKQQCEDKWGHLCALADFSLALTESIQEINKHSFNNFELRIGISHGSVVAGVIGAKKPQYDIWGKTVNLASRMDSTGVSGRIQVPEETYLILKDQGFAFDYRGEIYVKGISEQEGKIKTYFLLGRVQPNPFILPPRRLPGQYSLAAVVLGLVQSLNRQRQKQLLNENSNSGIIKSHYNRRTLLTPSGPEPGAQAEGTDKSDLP

This assay deals with T1, AKAP150 (A-kinase anchoring protein 150, rodent ortholog of AKAP79) (mouse (endogenous in MIN6)) (UniProt D3YVF0).
T1 sequence: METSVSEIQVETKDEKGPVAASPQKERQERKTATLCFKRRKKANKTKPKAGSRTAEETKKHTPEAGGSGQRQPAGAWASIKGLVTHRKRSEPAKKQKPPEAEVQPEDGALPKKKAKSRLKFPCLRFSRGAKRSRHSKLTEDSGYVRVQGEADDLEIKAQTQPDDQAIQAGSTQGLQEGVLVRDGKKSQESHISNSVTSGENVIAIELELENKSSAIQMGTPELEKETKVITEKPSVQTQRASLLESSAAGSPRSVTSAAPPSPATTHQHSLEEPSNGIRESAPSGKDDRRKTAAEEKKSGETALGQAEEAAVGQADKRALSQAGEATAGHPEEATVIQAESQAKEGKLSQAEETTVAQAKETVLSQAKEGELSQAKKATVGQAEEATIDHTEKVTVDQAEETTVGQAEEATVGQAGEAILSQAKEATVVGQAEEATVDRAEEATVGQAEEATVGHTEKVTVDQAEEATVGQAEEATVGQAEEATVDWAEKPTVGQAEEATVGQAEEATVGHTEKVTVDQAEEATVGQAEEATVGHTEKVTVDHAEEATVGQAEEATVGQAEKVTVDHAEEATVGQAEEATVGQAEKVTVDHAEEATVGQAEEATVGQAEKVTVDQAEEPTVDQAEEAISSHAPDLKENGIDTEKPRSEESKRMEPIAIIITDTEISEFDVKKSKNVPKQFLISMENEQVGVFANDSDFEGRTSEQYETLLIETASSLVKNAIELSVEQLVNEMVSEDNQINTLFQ
Kind of assay: proximity ligation; in situ PLA (Duolink red kit) in fixed, permeabilised MIN6 cells; anti-AC8 and anti-AKAP150 primary antibodies conjugated with PLUS or MINUS oligos; PLA puncta per cell counted; non-transfected cells compared with cells expressing EGFP-tagged AC8 1-106.

These are yes or no findings as the source states them, for the method shown. Binding seen in cells or lysates may run through a third protein. Some entries that bind do so weakly or less than the wild type.

“AC8 (Ca2+-stimulated adenylyl cyclase 8) (from UniProt P97490 1-1249) (enzyme)”: the binding result is “binds”.
